“Also recorded” adds a separate entry of the source.
Test system: E. coli K1 strain RS218
Experiment: Mouse model of experimental hematogenous E. coli meningitis (cPLA2α-/- and wild type BALB/c mice)
Format: in vivo
Details: i.v. 1.2 μg/mouse in 50 μl PBS 30 mins before bacterial injection
Procedure: cPLA2α−/− and wild type mice, either male or female, […] that had been backcrossed on the BALB/c strain for >10 generations were used^14. All procedures and handling techniques were approved by The Johns Hopkins Animal Care and Use Committee.
Each mouse received 1×10^7 CFU of E. coli K1 strain RS218 in 100 μl PBS via the tail vein. One hour later, mouse chest was cut open, and blood from right ventricle was collected and plated for bacteria counts, which were expressed as CFUs/ml of blood. The mouse was then perfused with a mammalian Ringer's solution by transcardiac perfusion through a 23-gauge needle inserted into the left ventricle of the heart under the perfusion pressure of about 100 mmHg. The perfusate exited through a cut in the right atrium. […] The brains were removed, weighed and homogenized in 2 ml RPMI followed by plating for bacterial counts, which were expressed as CFUs/gm. Since E. coli K1 penetration into the brain is shown to depend on the magnitude of bacteremia^5,7, bacterial penetration into the brain was also expressed as [(brain CFUs per gm)/(blood CFUs per ml)]×100. Kidneys and spleens were also removed, homogenized and plated for determination of bacterial counts, which were expressed as CFUs/gm. […]

For CCCCC/C=C\C/C=C\C/C=C\C/C=C\CCCC(=O)O [arachidonic acid, Arachidonic acid], the “bacterial counts in the blood, spleens and kidneys” value was “did not affect the bacterial counts in the blood, spleens and kidneys; also recorded: did not affect the bacterial counts in the blood, kidney and spleen”.
